The target in assay [1] is collagen cross-linked to agarose (Sigma). The assay is described as follows: collagen-agarose pulldown with control agarose, anti-mouse IL-2 immunoblot.
Assay [2] has the same target. The assay is described as follows: pulldown with collagen-agarose, SDS-PAGE and anti-mouse IL-2 immunoblot.

These are yes or no findings as the source states them, for the method shown. Binding can be weak; no strength is given.

B1: Construct II (collagen I): mIL2-…(SEQ ID NO: 665)-MMPcs1-2x(G4S)-mIL2Ra(1-215)-muIgG1Fc (Fc fusion)
chain: APTSSSTSSSTAEAQQQQQQQQQQQQHLEQLLMDLQELLSRMENYRNLKLPRMLTFKFYLPKQATELKDLQCLEDELGPLRHVLDLTQSKSFQLEDAENFISNIRVTVVKLKGSDNTFECQFDDESATVVDFLRRWIAFCQSIISTSPQSLHERHLNNNGPLGVRGGGGGSGGGGSELCLYDPPEVPNATFKALSYKNGTILNCECKRGFRRLKELVYMRCLGNSWSSNCQCTSNSHDKSRKQVTAQLEHQKEQQTTTDMQKPTQSMHQENLTGHCREPPPWKHEDSKRIYHFVEGQSVHYECIPGYKALQRGPAISICKMKCGKTGWTQPQLTCVDEREHHRFLASEESQGSRNSSPESETSCPITTTDFPQPTETTAMTETFVLTMEYKGCKPCICTVPEVSSVFIFPPKPKDVLTITLTPKVTCVVVDISKDDPEVQFSWFVDDVEVHTAQTQPREEQFNSTFRSVSELPIMHQDWLNGKEFKCRVNSAAFPAPIEKTISKTKGRPKAPQVYTIPPPKEQMAKDKVSLTCMITDFFPEDITVEWQWNGQPAENYKNTQPIMDTDGSYFVYSKLNVQKSNWEAGNTFTCSVLHEGLHNHHTEKSLSHSPGK
In the case of B1, the binding result in assay [1] and in assay [2] was “binds” in each case.

(Values after patent publication US20240417437A1, “Linker Polypeptides” (Trutino Biosciences Inc., priority 2021, published 2024).)
